Results on one compound are retold here after the supplement of paper PMC6411743.

± gives the standard deviation of the averaged measurements. This is a selection; strong and weak results do not stand in their true shares. Most entries show no effect beyond the scatter of the controls.

The target in the assay is A0A0A0MT26|P13637 and related entries (UniProt P13637). The assay can be described thus: NP40-soluble protein abundance relative to vehicle (solubility fold change) (ratio); higher = more soluble protein in presence of AMP-PNP. An outline of the steps: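 Across three independent experiments, values are fold changes against the detergent-processed vehicle for each replicate, based on vsn-normalised intensities. The samples were Jurkat crude lysate treated with eight concentrations (0.1 to 10 mM) for 10 min at room temperature and then 3 min at 37 °C. Lysate was solubilised with 0.8% NP40 and benzonase, ultracentrifuged, and the supernatant analysed by TMT-labelled LC-MS/MS.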

On to `Nc1ncnc2c1ncn2[C@@H]1O[C@H](COP(=O)(O)OP(=O)(O)NP(=O)(O)O)[C@@H](O)[C@H]1O` [adenylyl imidodiphosphate], for which the NP40-soluble protein abundance reads like this: (concentration: 0.1mM) 0.9926 ± 0.0077; (concentration: 0.5mM) 1 ± 0.03.
